These are yes or no findings as the source states them, for the method shown. Binding seen in cells or lysates may run through a third protein. Some binding calls cover weakened binding; strength is not graded here.

Chains of the proteins cited; added tags and fusions are not shown.
UniProt Q38SD2: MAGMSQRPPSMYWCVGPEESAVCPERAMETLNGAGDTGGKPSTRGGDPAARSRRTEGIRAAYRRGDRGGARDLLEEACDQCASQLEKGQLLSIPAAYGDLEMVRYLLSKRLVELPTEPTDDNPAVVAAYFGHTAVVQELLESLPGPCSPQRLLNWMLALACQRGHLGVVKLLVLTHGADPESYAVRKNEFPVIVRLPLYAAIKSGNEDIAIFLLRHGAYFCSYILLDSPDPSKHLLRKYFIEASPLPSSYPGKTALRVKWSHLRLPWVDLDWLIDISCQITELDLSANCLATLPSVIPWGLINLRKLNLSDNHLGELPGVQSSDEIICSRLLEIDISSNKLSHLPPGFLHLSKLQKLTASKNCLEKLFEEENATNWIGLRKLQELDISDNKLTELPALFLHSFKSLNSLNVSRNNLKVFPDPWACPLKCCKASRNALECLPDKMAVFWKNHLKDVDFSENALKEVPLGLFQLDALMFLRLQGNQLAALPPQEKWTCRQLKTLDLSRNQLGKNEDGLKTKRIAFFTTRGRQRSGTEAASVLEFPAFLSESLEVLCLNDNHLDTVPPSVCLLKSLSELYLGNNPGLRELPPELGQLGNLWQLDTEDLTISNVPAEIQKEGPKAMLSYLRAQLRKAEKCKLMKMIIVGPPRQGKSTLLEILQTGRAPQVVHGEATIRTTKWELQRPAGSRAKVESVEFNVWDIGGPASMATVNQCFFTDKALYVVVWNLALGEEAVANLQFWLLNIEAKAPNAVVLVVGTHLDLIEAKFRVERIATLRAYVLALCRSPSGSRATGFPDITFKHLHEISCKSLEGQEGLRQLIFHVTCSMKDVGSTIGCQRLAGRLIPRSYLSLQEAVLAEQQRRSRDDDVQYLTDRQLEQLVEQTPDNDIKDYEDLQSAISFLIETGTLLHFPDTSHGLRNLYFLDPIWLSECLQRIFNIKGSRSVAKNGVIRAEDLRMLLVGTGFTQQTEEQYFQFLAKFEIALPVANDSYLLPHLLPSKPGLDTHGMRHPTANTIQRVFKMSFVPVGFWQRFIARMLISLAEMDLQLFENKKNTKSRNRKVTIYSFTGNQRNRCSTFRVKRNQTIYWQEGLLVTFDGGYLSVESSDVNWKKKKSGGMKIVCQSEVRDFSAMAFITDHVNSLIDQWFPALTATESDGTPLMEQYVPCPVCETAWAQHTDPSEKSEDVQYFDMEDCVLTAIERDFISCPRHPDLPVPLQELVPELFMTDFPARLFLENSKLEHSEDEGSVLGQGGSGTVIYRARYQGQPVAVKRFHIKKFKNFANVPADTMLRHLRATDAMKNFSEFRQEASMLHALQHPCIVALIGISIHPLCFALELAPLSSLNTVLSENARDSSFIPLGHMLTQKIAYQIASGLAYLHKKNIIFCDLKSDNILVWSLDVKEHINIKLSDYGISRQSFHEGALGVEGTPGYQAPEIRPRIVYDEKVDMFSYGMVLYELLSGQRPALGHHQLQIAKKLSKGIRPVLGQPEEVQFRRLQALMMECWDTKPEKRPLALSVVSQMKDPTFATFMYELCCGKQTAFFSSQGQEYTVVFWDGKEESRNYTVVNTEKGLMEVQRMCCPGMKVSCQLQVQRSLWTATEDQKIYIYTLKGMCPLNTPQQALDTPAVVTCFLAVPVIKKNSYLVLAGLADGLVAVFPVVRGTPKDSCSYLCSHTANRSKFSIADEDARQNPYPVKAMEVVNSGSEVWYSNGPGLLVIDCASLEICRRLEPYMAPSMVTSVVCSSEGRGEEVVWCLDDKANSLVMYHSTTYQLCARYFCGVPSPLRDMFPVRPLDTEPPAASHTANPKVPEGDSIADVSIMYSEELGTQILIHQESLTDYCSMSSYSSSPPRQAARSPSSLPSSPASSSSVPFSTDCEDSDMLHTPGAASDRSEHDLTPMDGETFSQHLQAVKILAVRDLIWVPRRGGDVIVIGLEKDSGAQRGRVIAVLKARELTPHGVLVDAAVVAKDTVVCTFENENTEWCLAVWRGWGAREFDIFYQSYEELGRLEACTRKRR
UniProt Q96NW4: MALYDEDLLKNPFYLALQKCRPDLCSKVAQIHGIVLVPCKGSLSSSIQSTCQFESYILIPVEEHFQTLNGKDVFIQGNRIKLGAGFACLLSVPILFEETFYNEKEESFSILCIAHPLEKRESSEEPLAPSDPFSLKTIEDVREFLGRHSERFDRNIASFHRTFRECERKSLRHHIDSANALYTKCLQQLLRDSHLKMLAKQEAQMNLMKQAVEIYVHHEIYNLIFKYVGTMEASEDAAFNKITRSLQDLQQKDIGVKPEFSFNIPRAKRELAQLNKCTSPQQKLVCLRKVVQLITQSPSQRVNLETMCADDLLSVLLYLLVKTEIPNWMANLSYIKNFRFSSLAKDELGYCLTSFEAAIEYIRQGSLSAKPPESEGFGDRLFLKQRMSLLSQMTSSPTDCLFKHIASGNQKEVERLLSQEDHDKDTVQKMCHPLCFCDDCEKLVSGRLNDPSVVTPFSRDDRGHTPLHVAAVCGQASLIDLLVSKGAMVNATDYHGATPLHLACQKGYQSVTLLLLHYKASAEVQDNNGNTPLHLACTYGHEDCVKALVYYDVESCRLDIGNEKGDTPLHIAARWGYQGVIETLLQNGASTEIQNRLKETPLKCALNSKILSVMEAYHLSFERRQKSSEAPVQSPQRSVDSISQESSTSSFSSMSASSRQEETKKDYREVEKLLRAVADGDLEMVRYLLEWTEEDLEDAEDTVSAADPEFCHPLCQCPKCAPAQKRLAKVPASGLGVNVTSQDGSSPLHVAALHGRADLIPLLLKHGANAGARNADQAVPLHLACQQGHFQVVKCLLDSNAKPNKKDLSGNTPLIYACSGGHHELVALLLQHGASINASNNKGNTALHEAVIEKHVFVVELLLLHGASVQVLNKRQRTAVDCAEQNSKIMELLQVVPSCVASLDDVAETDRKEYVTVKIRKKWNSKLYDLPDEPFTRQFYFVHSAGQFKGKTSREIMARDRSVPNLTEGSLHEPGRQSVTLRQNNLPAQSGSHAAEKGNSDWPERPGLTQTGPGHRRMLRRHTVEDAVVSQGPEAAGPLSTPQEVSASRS
UniProt Q9JHW5: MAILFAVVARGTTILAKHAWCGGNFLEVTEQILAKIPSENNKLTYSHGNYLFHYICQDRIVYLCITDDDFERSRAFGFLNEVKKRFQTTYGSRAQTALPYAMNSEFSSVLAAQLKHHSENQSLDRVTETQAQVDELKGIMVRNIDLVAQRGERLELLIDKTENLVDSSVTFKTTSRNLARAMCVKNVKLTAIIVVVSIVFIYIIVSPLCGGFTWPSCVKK

One test has as its target GFP-tagged LRRK1 (UniProt Q38SD2). Briefly: co-IP.
The next test concerns the target GFP-tagged VARP (UniProt Q96NW4). Kind of test: co-IP.

As for “RFP-tagged full length VAMP7 (from UniProt Q9JHW5 1-220)”, the binding entry with GFP-tagged LRRK1 and in the test with GFP-tagged VARP was “binds” in each case.

The record behind these values is publication doi:10.1101/159285.
